Results deposited as PubChem BioAssay AID602196 (INSERM, 2012)
Assay: 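Genes whose knock-down alters cisplatin killing of lung cancer cells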. Cell system: human A549 lung cancer cells. Reagent: siRNA pair against human genes. Timing: 48 h transfection before cisplatin; time from cisplatin to read-out not stated. Challenge: cisplatin at a dose killing half of control-siRNA cells; exact dose and duration not given. Measurement: 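Cisplatin cell death as a shift from the 50% death seen with control siRNA; siRNAs toxic or growth-blocking alone scored 0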. Direction: two-siRNA summed score (-2 to +2): higher = both siRNAs protect from cisplatin killing; -2 means both sensitise; mean protection from cisplatin (shift in death) and protection from cisplatin (shift in death), siRNA C and protection from cisplatin (shift in death), siRNA D: higher = protection from cisplatin killing. Rule for the call: 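siRNAs harmful alone (LDH or WST-1) get 0; others get +1 for less and -1 for more cisplatin killing; genes are active when the two siRNAs give the same sign, summing to ±2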. Meaning of the calls: active = both siRNAs shift cisplatin killing the same way; inactive = no consistent shift, or siRNA harmful alone.
Shown is an unselected part of about 23,000 reagents. 455 of all reagents (2%) were called active. 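Active includes both protection and sensitisation; some change values fall well beyond the stated -50 to +50 range.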 Entries without a mark were called inactive. Not given: the amount of reagent.

gene knocked down,two-siRNA summed score (-2 to +2),mean protection from cisplatin (shift in death) (%),"protection from cisplatin (shift in death), siRNA C (%)","protection from cisplatin (shift in death), siRNA D (%)"
ZNF185,1,7.7,-3.1,18.5
GMEB2,0,-7,14,-28
SEC61A1,1,15,20.6,9.4
EIF4H,0,-2.5,4.7,-9.8
LOC286080,0,17.5,7.7,27.3
IFT22,0,0.9,-14,15.8
LOC284371,-1,-7.3,-13.1,-1.5
OR4X2,0,11.1,9,13.2
GPR27,1,21.6,29.5,13.8
BMAL1,0,15.6,26.3,4.9
LOC441999,0,1.9,-4.7,8.5
FTH1P16,0,7.5,12.1,2.9
PARD6A,-1,-14.6,-8.3,-20.9
LOC400087,1,15.7,21.6,9.8
LOC392467,0,4.4,6.3,2.5
BABAM1,0,-2.2,-2.1,-2.2
PSME2,0,-7.4,-41.4,26.6
OOSP2,0,12.9,17.3,8.6
CORO6,0,10.9,1.2,20.6
LOC440891,0,9,11,7
NUCKS1,1,6.3,12.6,-0.1
LOC440007,0,32.7,7.2,58.1
P2RX3,1,7.1,19.6,-5.5
LRRC9,0,-1.3,-0.9,-1.7
TRAPPC11,0,3.2,2.7,3.7
LOC389319,0,2.2,-3,7.4
GUF1,0,10.8,10.8,10.8
LOC340228,0,4.8,4.7,4.9
SPATS1,1,14.1,16.8,11.4
SPAST,0,0.1,3.6,-3.4
RPL26,0,20.9,21.8,20
LOC441447,0,25,22.5,27.6
LOC440388,0,16.9,10,23.7
RPP40,0,19.4,16.9,21.8
GNG12,0,-7.3,5,-19.5
BPIFB6,0,-11.3,-1.6,-21
LIN37,0,-5.5,-1.1,-10
POTED,0,-0.2,-4.7,4.3
SLC22A20P,1,15.1,6.4,23.7
PARP9,-1,-12.2,-21.4,-2.9
PRRG1,0,-0.2,-9.1,8.7
ST13,1,7.6,-2,17.2
RPRD1B,1,12.8,15.2,10.5
MFSD12,0,-1.5,-1.3,-1.7
RAB25,-1,-11.5,-23,0
UGT1A8,0,5,6.6,3.4
MED18,0,-7,2.9,-16.9
TNF,0,14.7,-2.8,32.3
TNFRSF14-AS1,0,-2.5,-6.5,1.5
NECTIN3,-1,-26.7,-21.6,-31.7
ALOX15,0,-5.6,-14.2,2.9
LOC286126,0,6.2,11.8,0.5
SRSF1,0,8.4,8.5,8.3
ZFAND1,0,0.7,2.4,-1
SLC26A10P,0,5.3,-2.5,13
TRIM8,0,3.7,7.5,-0.1
LOC440719,0,-7.1,-3.8,-10.4

Already shown: an excerpt of the list.
gene knocked down,two-siRNA summed score (-2 to +2),mean protection from cisplatin (shift in death) (%),"protection from cisplatin (shift in death), siRNA C (%)","protection from cisplatin (shift in death), siRNA D (%)"
BABAM1,0,-2.2,-2.1,-2.2
PSME2,0,-7.4,-41.4,26.6
OOSP2,0,12.9,17.3,8.6
CORO6,0,10.9,1.2,20.6
LOC440891,0,9,11,7
NUCKS1,1,6.3,12.6,-0.1
